Measured values taken from publication PMC3411835.
Results are given in words; binding and its absence hold for the method and conditions named. In cells and extracts the contact can be indirect. Some binding calls cover weakened binding; strength is not graded here. Tags and fused reporters may be left off the sequences shown. Values belong to the molecule of their own block, whether it stands above or below them.

Chains of the proteins cited; added tags and fusions are not shown. Residues count along the entry.
UniProt P15812, residues 32-388: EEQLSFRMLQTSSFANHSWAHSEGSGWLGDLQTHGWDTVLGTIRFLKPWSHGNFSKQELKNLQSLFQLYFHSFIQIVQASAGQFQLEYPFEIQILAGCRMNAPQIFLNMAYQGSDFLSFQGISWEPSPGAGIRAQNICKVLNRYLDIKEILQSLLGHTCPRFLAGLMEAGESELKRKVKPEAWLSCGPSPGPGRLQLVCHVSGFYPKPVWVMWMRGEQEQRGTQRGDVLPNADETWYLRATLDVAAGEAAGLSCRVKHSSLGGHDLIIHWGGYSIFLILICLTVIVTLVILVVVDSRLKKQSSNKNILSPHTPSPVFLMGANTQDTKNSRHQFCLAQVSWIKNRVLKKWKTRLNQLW

Tests used:
[1] = target: T1, EYFP-LAPTM5 fusion protein (in M10 cells) (UniProt Q13571); experiment: co-IP; as a2, but only the cells not treated with bafilomycin
T1 sequence: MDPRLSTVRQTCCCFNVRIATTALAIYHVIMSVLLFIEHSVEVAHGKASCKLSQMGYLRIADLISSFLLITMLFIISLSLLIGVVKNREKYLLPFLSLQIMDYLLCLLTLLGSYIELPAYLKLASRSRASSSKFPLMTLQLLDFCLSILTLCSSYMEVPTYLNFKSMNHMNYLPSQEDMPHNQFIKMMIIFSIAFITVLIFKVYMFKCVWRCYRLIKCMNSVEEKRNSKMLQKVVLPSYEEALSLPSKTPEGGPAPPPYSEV

[2] = target: T2, V5-tagged LAPTM5 (in M10 cells) (UniProt Q13571); experiment: as above
T2 sequence: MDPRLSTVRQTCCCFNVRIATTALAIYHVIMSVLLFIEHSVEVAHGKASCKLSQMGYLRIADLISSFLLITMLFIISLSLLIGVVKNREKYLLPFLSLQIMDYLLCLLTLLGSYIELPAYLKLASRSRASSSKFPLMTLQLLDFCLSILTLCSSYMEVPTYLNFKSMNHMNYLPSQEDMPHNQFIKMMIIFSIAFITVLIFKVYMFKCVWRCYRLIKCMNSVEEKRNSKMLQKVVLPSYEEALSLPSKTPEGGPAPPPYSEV

[3] = target: T1, EYFP-LAPTM5 fusion protein (in M10 cells); experiment: co-IP; cleared lysates of transfected M10 cells, treated or not for 5 h with bafilomycin; immunoprecipitation with anti-CD1e mAb 20.6 or anti-GFP/anti-V5 antibodies, protein A-Sepharose, western blot with anti-tag antibodies or anti-CD1e mAb VIIC7
[4] = target: T2, V5-tagged LAPTM5 (in M10 cells); experiment: as above
[5] = target: CD1e (transgenic, expressed in M10 melanoma cells) (human) (UniProt P15812); experiment: as above
[6] = target: CD1e-mCherry fusion protein (in M10 cells) (human) (UniProt P15812); experiment: as above
[7] = target: CD1e (expressed in transfected HEK293 cells) (human) (UniProt P15812); experiment: co-IP; transfected HEK293 cells treated with bafilomycin; data not shown
[8] = target: CD1e (transgenic, expressed in M10 melanoma cells) (human) (UniProt P15812); experiment: co-IP; as a2, but only the cells not treated with bafilomycin
[9] = target: CD1e (transgenic, expressed in M10 melanoma cells) (human) (UniProt P15812); experiment: co-IP; M10 cells labelled 45 min with 35S and chased 0-4 h in the presence of bafilomycin; 1% Triton X100 lysate; immunoprecipitation with mAb 20.6, Endo F, SDS-PAGE, autoradiography

B2: V5-tagged LAPTM5 (in transfected HEK293 cells) (protein, UniProt Q13571 1-262)
chain: MDPRLSTVRQTCCCFNVRIATTALAIYHVIMSVLLFIEHSVEVAHGKASCKLSQMGYLRIADLISSFLLITMLFIISLSLLIGVVKNREKYLLPFLSLQIMDYLLCLLTLLGSYIELPAYLKLASRSRASSSKFPLMTLQLLDFCLSILTLCSSYMEVPTYLNFKSMNHMNYLPSQEDMPHNQFIKMMIIFSIAFITVLIFKVYMFKCVWRCYRLIKCMNSVEEKRNSKMLQKVVLPSYEEALSLPSKTPEGGPAPPPYSEV
binding [7]: binds

B3: V5-tagged LAPTM5 (in M10 cells) (protein, UniProt Q13571 1-262)
chain: MDPRLSTVRQTCCCFNVRIATTALAIYHVIMSVLLFIEHSVEVAHGKASCKLSQMGYLRIADLISSFLLITMLFIISLSLLIGVVKNREKYLLPFLSLQIMDYLLCLLTLLGSYIELPAYLKLASRSRASSSKFPLMTLQLLDFCLSILTLCSSYMEVPTYLNFKSMNHMNYLPSQEDMPHNQFIKMMIIFSIAFITVLIFKVYMFKCVWRCYRLIKCMNSVEEKRNSKMLQKVVLPSYEEALSLPSKTPEGGPAPPPYSEV
binding [8]: no binding (condition: cells not treated with bafilomycin)
binding [9]: binds
binding [5]: binds

The next lines start with results.

binding [3]: binds
binding [4]: binds
Molecule: CD1e (transgenic, expressed in M10 melanoma cells) (from UniProt P15812 32-388)
binding [1]: no binding (condition: cells not treated with bafilomycin)
binding [2]: no binding (condition: cells not treated with bafilomycin)

binding [5]: binds
binding [6]: binds
B1: EYFP-LAPTM5 fusion protein (in M10 cells) (protein, UniProt Q13571 1-262)
chain: MDPRLSTVRQTCCCFNVRIATTALAIYHVIMSVLLFIEHSVEVAHGKASCKLSQMGYLRIADLISSFLLITMLFIISLSLLIGVVKNREKYLLPFLSLQIMDYLLCLLTLLGSYIELPAYLKLASRSRASSSKFPLMTLQLLDFCLSILTLCSSYMEVPTYLNFKSMNHMNYLPSQEDMPHNQFIKMMIIFSIAFITVLIFKVYMFKCVWRCYRLIKCMNSVEEKRNSKMLQKVVLPSYEEALSLPSKTPEGGPAPPPYSEV

binding [9]: binds
B4: lysosomal-associated transmembrane protein 5 (LAPTM5), endogenous in M10 cells (protein, UniProt Q13571 1-262)
chain: MDPRLSTVRQTCCCFNVRIATTALAIYHVIMSVLLFIEHSVEVAHGKASCKLSQMGYLRIADLISSFLLITMLFIISLSLLIGVVKNREKYLLPFLSLQIMDYLLCLLTLLGSYIELPAYLKLASRSRASSSKFPLMTLQLLDFCLSILTLCSSYMEVPTYLNFKSMNHMNYLPSQEDMPHNQFIKMMIIFSIAFITVLIFKVYMFKCVWRCYRLIKCMNSVEEKRNSKMLQKVVLPSYEEALSLPSKTPEGGPAPPPYSEV
